# PubChem BioAssay AID686938 – Drosophila RNAi Screening Center, 2013
# Screen: 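Looking for CRAC channel components and the factors controlling them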 (primary screen)
# System: Drosophila S2R+ cells
# Reagent: long dsRNA against Drosophila genes, about 0.25 µg dsRNA per well, roughly 10,000 cells
# Time to read-out: 5 days of knock-down before the calcium assay
# Conditions: thapsigargin (SERCA pump blocker) to empty calcium stores; entry signal taken 4 min after adding it
# Read-out: 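Per-well fluo-4 fluorescence in two replicates, unnormalised, measured in resting cells and 4 min after store depletion by the SERCA blocker thapsigargin; ratio of the two present in few wells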
# Scale: calcium entry signal: higher = stronger calcium signal after store depletion; entry to resting ratio: higher = more calcium entry relative to resting level; resting calcium signal: higher = higher resting calcium signal
# Rule for the call: 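Hit if the duplicate-averaged plate z-score for entry over resting signal is under −3; wells with weak total dye signal (Fmax z < −2) or more than 5 off-targets removed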
# Calls: active = strongly reduced calcium entry; inactive = no strong reduction
# The screen tested about 23,000 reagents; this is an unselected part of those with a known target gene and a result. In the full data, 75 (0.33%) got an active call. 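Raw plate signals without normalisation; calls rest on plate z-scores that were not deposited; ratio present for only 364 wells.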 Reagent sequences are not shown. Not given: the dose of the treatment.
The first 9 entries, ahead of the listing:
Target gene,amplicon,"calcium entry signal, replicate 1 (fluorescence units)","calcium entry signal, replicate 2 (fluorescence units)",entry to resting ratio,"resting calcium signal, replicate 1 (fluorescence units)","resting calcium signal, replicate 2 (fluorescence units)",call
Hsp60D,DRSC02543,3.91e7,2.82e7,,1.72e7,1.27e7,inactive
CG10011,DRSC14174,4.84e7,4.59e7,,2.24e7,2.20e7,inactive
narya,DRSC19439,4.01e7,4.07e7,,1.80e7,1.67e7,inactive
CG30391,DRSC21572,3.52e7,3.06e7,,2.02e7,1.43e7,inactive
unc-13-4A,DRSC10201,2.56e7,3.67e7,,1.27e7,1.78e7,inactive
unc-13-4A,DRSC10202,2.50e7,3.66e7,,1.21e7,1.70e7,inactive
unc-13-4A,DRSC10203,1.43e7,1.93e7,,9.59e6,1.28e7,inactive
unc-13-4A,DRSC11013,2.69e7,3.95e7,,1.21e7,1.73e7,inactive
Mzt1,DRSC07979,2.81e7,4.98e7,,2.41e7,2.20e7,inactive

The listing, repeating the preview:
Target gene,amplicon,"calcium entry signal, replicate 1 (fluorescence units)","calcium entry signal, replicate 2 (fluorescence units)",entry to resting ratio,"resting calcium signal, replicate 1 (fluorescence units)","resting calcium signal, replicate 2 (fluorescence units)",call
Hsp60D,DRSC02543,3.91e7,2.82e7,,1.72e7,1.27e7,inactive
CG10011,DRSC14174,4.84e7,4.59e7,,2.24e7,2.20e7,inactive
narya,DRSC19439,4.01e7,4.07e7,,1.80e7,1.67e7,inactive
CG30391,DRSC21572,3.52e7,3.06e7,,2.02e7,1.43e7,inactive
unc-13-4A,DRSC10201,2.56e7,3.67e7,,1.27e7,1.78e7,inactive
unc-13-4A,DRSC10202,2.50e7,3.66e7,,1.21e7,1.70e7,inactive
unc-13-4A,DRSC10203,1.43e7,1.93e7,,9.59e6,1.28e7,inactive
unc-13-4A,DRSC11013,2.69e7,3.95e7,,1.21e7,1.73e7,inactive
Mzt1,DRSC07979,2.81e7,4.98e7,,2.41e7,2.20e7,inactive
CG2519,DRSC12312,3.42e7,3.59e7,,1.45e7,1.64e7,inactive
Crag,DRSC18454,2.94e7,3.24e7,,1.45e7,1.54e7,inactive
asl,DRSC12319,3.83e7,4.03e7,,1.55e7,1.89e7,inactive
APP-BP1,DRSC10920,2.84e7,3.36e7,,1.50e7,1.67e7,inactive
CG3734,DRSC15509,4.00e7,4.21e7,,3.97e7,1.79e7,inactive
CG17472,DRSC02622,4.32e7,4.43e7,,1.91e7,1.92e7,inactive
cN-IIIB,DRSC04359,4.16e7,,,2.12e7,,inactive
CG8389,DRSC07158,3.40e7,2.43e7,,1.59e7,1.21e7,inactive
CG8389,DRSC22855,2.69e7,4.03e7,,1.26e7,1.71e7,inactive
sna,DRSC03613,4.20e7,3.45e7,,1.92e7,1.75e7,inactive
tex,DRSC16517,4.10e7,3.89e7,,1.99e7,1.90e7,inactive
eIF2A,DRSC11825,2.82e7,4.09e7,,1.30e7,2.79e7,inactive
CG11586,DRSC08203,5.70e7,3.26e7,,3.68e7,1.65e7,inactive
CG14062,DRSC14725,4.46e7,5.64e7,,2.26e7,2.44e7,inactive
Chc,DRSC20229,3.90e7,4.27e7,,1.88e7,1.96e7,inactive
CNT1,DRSC06082,3.51e7,3.57e7,,1.56e7,1.55e7,inactive
CG6686,DRSC02979,2.13e7,,,1.40e7,,inactive
ImpE2,DRSC08665,4.42e7,3.66e7,,2.84e7,1.59e7,inactive
Ilp5,DRSC08998,2.95e7,4.65e7,,1.46e7,2.18e7,inactive
Edg91,DRSC16657,2.90e7,5.45e7,,1.62e7,6.59e7,inactive
Mlp60A,DRSC04623,3.96e7,4.81e7,,1.94e7,1.96e7,inactive
Mlp60A,DRSC22233,3.24e7,8.43e7,,1.60e7,3.29e7,inactive
Mlp60A,DRSC22481,5.60e7,3.94e7,,3.20e7,1.85e7,inactive
dop,DRSC10655,3.54e7,4.48e7,,1.53e7,3.09e7,inactive
ZnT63C,DRSC08032,2.95e7,3.68e7,,1.35e7,1.77e7,inactive
ZnT63C,DRSC08033,2.75e7,3.98e7,,1.35e7,1.80e7,inactive
ZnT63C,DRSC08519,3.44e7,2.60e7,,2.46e7,1.22e7,inactive
ZnT63C,DRSC21989,2.22e7,3.53e7,,1.17e7,1.78e7,inactive
CG2962,DRSC18247,4.27e7,4.62e7,,2.02e7,2.17e7,inactive
Pgi,DRSC07507,4.44e7,3.97e7,,2.11e7,2.15e7,inactive
flz,DRSC07109,2.77e7,3.16e7,,1.26e7,1.41e7,inactive
CG30323,DRSC07656,4.26e7,4.07e7,,1.74e7,1.95e7,inactive
RabGGTb,DRSC00804,4.22e7,,,2.02e7,,inactive
wde,DRSC05955,5.40e7,4.08e7,,2.24e7,1.87e7,inactive
Acp1,DRSC01854,2.62e7,3.79e7,,1.10e7,1.78e7,inactive
Hmt4-20,DRSC18482,4.34e7,5.45e7,,1.93e7,2.44e7,inactive
Pi3K68D,DRSC11253,3.38e7,2.72e7,,2.50e7,1.13e7,inactive
Vps13B,DRSC15060,4.50e7,5.66e7,,2.25e7,2.25e7,inactive
CG13405,DRSC08310,3.27e7,4.26e7,,1.65e7,1.80e7,inactive
tacc,DRSC12019,3.19e7,3.48e7,,1.73e7,1.69e7,inactive
tacc,DRSC12388,3.74e7,3.07e7,,1.78e7,1.62e7,inactive
CG7600,DRSC09681,4.66e7,2.89e7,,2.85e7,1.37e7,inactive
trol,DRSC17714,3.46e7,4.14e7,,1.98e7,1.85e7,inactive
trol,DRSC17718,5.40e7,3.82e7,,2.40e7,1.82e7,inactive
trol,DRSC18613,3.64e7,5.21e7,1.9,1.97e7,2.19e7,inactive
trol,DRSC18814,4.86e7,4.93e7,2,2.45e7,1.99e7,inactive
ppk7,DRSC03236,3.93e7,3.56e7,,2.23e7,1.60e7,inactive
Drsl3,DRSC22630,4.03e7,2.89e7,,2.58e7,1.52e7,inactive
CG17177,DRSC10257,7.82e7,8.41e7,,3.00e7,2.64e7,inactive
Obp56f,DRSC22270,2.48e7,3.59e7,,1.26e7,1.89e7,inactive
Rpt3R,DRSC16501,2.67e7,3.33e7,,1.67e7,1.87e7,inactive
HDAC3,DRSC12352,2.27e7,2.90e7,,1.03e7,1.30e7,inactive
CG11099,DRSC06034,4.82e7,5.32e7,,2.11e7,2.29e7,inactive
Tsp66E,DRSC09683,3.28e7,4.90e7,,1.64e7,2.05e7,inactive
CG6527,DRSC10659,1.79e7,2.05e7,,9.34e6,1.07e7,inactive
CG13539,DRSC04181,2.34e7,2.71e7,,1.43e7,1.27e7,inactive
CG3776,DRSC04417,2.67e7,,,1.29e7,,inactive
Tehao,DRSC03449,3.36e7,2.23e7,,1.54e7,1.02e7,inactive
CG12126,DRSC06103,2.81e7,3.58e7,,1.33e7,1.46e7,inactive
CG15099,DRSC06528,2.59e7,2.47e7,,1.21e7,1.23e7,inactive
RhoGAP92B,DRSC14507,3.79e7,4.23e7,,5.71e7,1.84e7,inactive
RhoGAP92B,DRSC15637,3.39e7,3.77e7,,5.57e7,1.64e7,inactive
CG9389,DRSC11857,4.06e7,4.95e7,,1.93e7,3.11e7,inactive
mRpS9,DRSC12645,2.69e7,4.12e7,,1.16e7,1.68e7,inactive
mRpS9,DRSC15456,5.69e7,6.27e7,,2.63e7,2.77e7,inactive
CG15894,DRSC18098,2.29e7,3.32e7,,1.14e7,1.49e7,inactive
CG15894,DRSC18099,2.06e7,3.38e7,,1.18e7,1.55e7,inactive
